Measurements from article PMC5297747.

Chains of the proteins cited; added tags and fusions are not shown. Lines headed by an entry give the natural chain unless they say otherwise; changes in a name come on top. Residues count along the entry.
UniProt P06873, residues 106-384: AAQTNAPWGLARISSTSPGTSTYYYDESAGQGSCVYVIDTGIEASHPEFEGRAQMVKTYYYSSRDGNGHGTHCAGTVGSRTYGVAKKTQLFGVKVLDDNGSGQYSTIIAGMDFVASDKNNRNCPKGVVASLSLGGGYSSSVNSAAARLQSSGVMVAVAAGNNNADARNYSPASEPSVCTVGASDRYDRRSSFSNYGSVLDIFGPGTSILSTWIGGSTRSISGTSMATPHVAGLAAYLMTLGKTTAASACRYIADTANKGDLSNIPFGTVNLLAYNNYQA
UniProt B1YBJ2: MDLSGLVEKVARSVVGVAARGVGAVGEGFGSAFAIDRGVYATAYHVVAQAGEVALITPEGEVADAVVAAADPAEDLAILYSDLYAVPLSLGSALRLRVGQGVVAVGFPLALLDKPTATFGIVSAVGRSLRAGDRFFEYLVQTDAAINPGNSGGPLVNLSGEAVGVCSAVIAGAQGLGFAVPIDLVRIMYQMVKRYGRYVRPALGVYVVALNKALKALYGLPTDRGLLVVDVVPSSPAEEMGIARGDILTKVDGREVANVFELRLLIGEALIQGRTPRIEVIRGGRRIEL
UniProt P00772, residues 27-266: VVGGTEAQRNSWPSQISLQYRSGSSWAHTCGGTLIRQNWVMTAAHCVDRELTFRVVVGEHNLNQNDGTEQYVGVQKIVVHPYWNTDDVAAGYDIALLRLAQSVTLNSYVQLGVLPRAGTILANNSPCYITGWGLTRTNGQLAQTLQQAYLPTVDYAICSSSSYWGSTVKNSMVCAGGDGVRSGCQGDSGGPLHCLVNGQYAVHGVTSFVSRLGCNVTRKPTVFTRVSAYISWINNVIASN
UniProt B1YBN4: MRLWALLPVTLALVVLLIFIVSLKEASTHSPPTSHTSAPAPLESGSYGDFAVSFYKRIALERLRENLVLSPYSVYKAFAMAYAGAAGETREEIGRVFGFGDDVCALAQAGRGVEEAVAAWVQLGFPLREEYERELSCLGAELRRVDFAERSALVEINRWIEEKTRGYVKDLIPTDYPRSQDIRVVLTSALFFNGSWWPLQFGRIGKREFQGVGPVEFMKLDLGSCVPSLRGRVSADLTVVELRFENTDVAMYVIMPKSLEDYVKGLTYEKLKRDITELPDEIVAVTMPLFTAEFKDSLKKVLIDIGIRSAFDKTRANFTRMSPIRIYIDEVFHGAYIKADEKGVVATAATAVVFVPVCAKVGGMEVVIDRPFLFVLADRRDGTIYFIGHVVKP

What was measured:
Experiment in all cases: SDS-PAGE of SDS-resistant covalent complex; Pnserpin incubated with protease in buffer B at molar ratios 0.5 to 4 at 50 °C (80 °C for PnCHT) for 2 min; stopped with reducing SDS-PAGE buffer and boiling for 10 min; 10% gel, Coomassie staining; both purified
proteinase k = proteinase k (UniProt P06873)
[1] = target: PnCHT, chymotrypsin-like serine protease of Pyrobaculum neutrophilum (Pyrobaculum neutrophilum) (UniProt B1YBJ2)
subtilisin Carlsberg = target: T1, subtilisin Carlsberg (UniProt P00780)
T1 sequence: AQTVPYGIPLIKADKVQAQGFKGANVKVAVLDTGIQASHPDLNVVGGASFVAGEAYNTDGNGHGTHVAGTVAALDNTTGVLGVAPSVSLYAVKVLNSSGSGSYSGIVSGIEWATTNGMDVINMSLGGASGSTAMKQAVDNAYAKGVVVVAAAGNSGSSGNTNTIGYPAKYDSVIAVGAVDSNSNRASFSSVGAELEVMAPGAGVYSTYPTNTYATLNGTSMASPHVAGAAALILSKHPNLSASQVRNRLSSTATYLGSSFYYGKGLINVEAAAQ

[2] = target: porcine pancreatic elastase (porcine) (UniProt P00772)

binding (proteinase k): binds
binding [1]: binds
binding (subtilisin Carlsberg): binds
binding [2]: binds
Substance: Pnserpin (from UniProt B1YBN4)

Results are given in words; binding and its absence hold for the method and conditions named. Binding can be weak; no strength is given.
